PubChem BioAssay AID686943 – Drosophila RNAi Screening Center, 2013

Purpose: 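Fly genes whose loss alters ERK activation after insulin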 (primary screen)
Cell system: Drosophila S2R+ haemocyte-like cells expressing YFP-tagged ERK (Rolled)
Reagent: long dsRNA against Drosophila genes
Challenge: insulin stimulation versus unstimulated cells; dose and duration not given
Measurement: 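Per-plate z-scores of phospho-ERK immunostaining normalised to YFP-tagged ERK, measured with and without insulin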
Reading the numbers: replicate 1, z-score of dpERK with insulin and replicate 2, z-score of dpERK with insulin: higher = more active ERK per ERK-YFP after insulin; replicate 1, z-score of dpERK under basal conditions: higher = more basal active ERK per ERK-YFP; replicate 1, z-score of ERK-YFP with insulin: higher = more YFP-tagged ERK signal
The screen tested about 23,000 reagents; below is a random part of those that have a named target and a result. 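Extra replicates exist only for a retested subset of genes; insulin dose and duration not given; both raised and lowered dpERK matter.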 Names joined by + are all predicted targets of the reagent. The record does not give: the amount of reagent, the time to read-out.

gene knocked down	dsRNA	replicate 1, z-score of dpERK with insulin	replicate 2, z-score of dpERK with insulin	replicate 1, z-score of dpERK under basal conditions	replicate 1, z-score of ERK-YFP with insulin
Indy	DRSC10393	0	0.04	-0.58	0.34
Rnf11	DRSC21574	0.05	-0.76	-0.71	0.74
CG1806	DRSC19787	0.62	0.97	0.51	0.4
CG16853	DRSC01877	-0.85	-0.16	0.2	0.32
CG7191	DRSC03022	0.5	0.32	-0.36	0.8
Pfdn2	DRSC10618	-0.64	-0.58	-0.66	0.45
AspRS	DRSC05914	0.01	-0.31	-0.09	0.22
CG31272	DRSC16058	-0.62	0.34	-1.08	0.08
Rbf	DRSC18704	0.14	-0.75	-0.59	-0.36
pum	DRSC12722	0.79	0.63	-0.31	0.62
pum	DRSC12726	2	0.6	-0.06	-1.08
pum	DRSC17037	0.88	0.49	0.45	-0.49
pum	DRSC17038	0.08	0.14	-0.67	0.42
pum	DRSC22758	0.47	0.63	-0.39	0.47
pum	DRSC22794	0.17	-0.19	-1.44	-0.21
alphaSnap	DRSC11285	1	2.23	-1.86	-0.73
CG1750	DRSC15240	2.03	-0.38	6.51	-3.6
CG1637	DRSC18865	-0.31	-0.19	0.29	0.31
CG1637	DRSC19748	0.5	-0.06	0.44	0.53
CG1637	DRSC19749	0.35	0.34	1.21	0.31
Jon65Aii	DRSC10665	-0.17	-0.22	-0.34	0.6
CG6576	DRSC10663	0.2	0.21	-0.35	-0.26
CG7514	DRSC08597	-0.15	0.61	1.02	-0.12
lin-28	DRSC10261	-1.08	-1.2	-1.02	-0.35
CG14304	DRSC14783	0.61	0.97	-1.82	0.45
CG7332	DRSC20038	-0.36	-0.59	-0.25	0.2
CG17118	DRSC02579	-0.29	-0.2	0.43	-0.37
CG14312	DRSC14791	0.13	0.05	0.64	-0.24
sncRNA:430e + His2A:CG33859 + His2A:CG33817 + 37 more	DRSC21264	-4.34	-2.89	-3.58	-2.95
CG34459	DRSC06973	-0.7	-1.11	1.06	0.21
CG30486	DRSC06680	0.23	-0.18	-0.19	-0.13
Gem2	DRSC09721	0.01	-0.07	0.78	-0.89
Grl40a	DRSC03677	0.62	-0.16	0.55	-0.39
CG4511	DRSC15589	-0.91	-0.36	0.64	0.35
CG6465	DRSC16046	0.13	0.01	-0.12	-0.25
Tsp42Ed	DRSC05940	-0.05	0.39	0.68	0.15
CG6567	DRSC16066	-0.77	0.06	0.51	0.01
Idgf1	DRSC03349	0.38	-0.15	-0.42	0.43
RhoGAP71E	DRSC10232	2.44	2.91	1.06	-0.05
RhoGAP71E	DRSC10837	4	2.66	0.67	-1.55
RhoGAP71E	DRSC10838	1.37	1.69	1.62	1.69
mRpL23	DRSC08307	0.79	0.56	-1.15	0.66
alpha-PheRS	DRSC18224	1.04	2	-0.33	0.38
qm	DRSC11386	-1.07	-0.88	-0.48	0.36
Nca	DRSC11233	0.8	0.51	1.14	-0.24
QIL1	DRSC10888	-1.08	-1.1	-0.57	-1.21

Reprinted from the entries so far, 3 entries:
gene knocked down	dsRNA	replicate 1, z-score of dpERK with insulin	replicate 2, z-score of dpERK with insulin	replicate 1, z-score of dpERK under basal conditions	replicate 1, z-score of ERK-YFP with insulin
CG1750	DRSC15240	2.03	-0.38	6.51	-3.6
CG1637	DRSC18865	-0.31	-0.19	0.29	0.31
CG1637	DRSC19748	0.5	-0.06	0.44	0.53

The list goes on:
gene knocked down	dsRNA	replicate 1, z-score of dpERK with insulin	replicate 2, z-score of dpERK with insulin	replicate 1, z-score of dpERK under basal conditions	replicate 1, z-score of ERK-YFP with insulin
Nop56	DRSC14699	-0.27	-0.17	0.03	-1.72
apn	DRSC15124	-0.13	0.27	1.32	0.57
Hacd1	DRSC02988	0.22	-0.06	-0.54	-0.36
beat-IIb	DRSC13219	-0.14	0.57	-2.81	0.19
beat-IIb	DRSC14816	0.34	-1.33	-0.08	0.68
beat-IIb	DRSC15546	0.04	0.4	0.14	0.6
mtDNA-helicase	DRSC02912	-0.89	-0.03	0.91	-0.85
CG17803	DRSC15275	1.51	0.75	0.96	0.33
CG17803	DRSC22811	0.46	-0.2	1.42	-0.54
spo	DRSC11127	0.21	0.08	0.02	-0.32
CG14110	DRSC10113	-0.21	0.3	-1.45	0.39
CG13377	DRSC18622	1.23	0.24	-0.17	-0.19
Grip75	DRSC03337	-0.32	-0.39	1.68	-0.64
mrj	DRSC22592	-0.37	-0.45	0.39	-0.14
mRRF1	DRSC10421	0.38	-0.6	0.17	-0.32
TTLL4B	DRSC00636	-0.63	-0.24	-0.47	-0.28
CG2021	DRSC08546	0.13	-0.31	0.59	0.36
Zdhhc8	DRSC18044	-4.66	-4.02	-2.39	2.97
Zdhhc8	DRSC18122	0.93	2	0.71	0.09
CG32713	DRSC22766	-0.06	0.68	1.4	0.55
CG30440	DRSC04775	0.55	0.75	0.85	0.58
CG30440	DRSC04845	-0.03	0.28	2.61	0.15
CG30440	DRSC04855	-0.73	-0.14	0.11	0.25
pins	DRSC17043	-0.76	0	3.85	0.16
C3G	DRSC17745	0.91	0.54	0.16	-0.35
C3G	DRSC17929	0.64	0.64	1.86	0.24
C3G	DRSC22329	0.67	1.24	-0.8	1.4
